For one molecule, binding results are on record in publication PMC12507394.

This assay addresses FLAG-tagged full-length cTAGE5 (FL, 1-804). Kind of assay: co-IP; HEK293 cells co-transfected with Flag-tagged cTAGE5 (FL or mutants) and GFP-tagged LBR (FL or truncations); after 24 h lysates precipitated with Flag agarose beads, blot with anti-Flag or anti-GFP.

These are yes or no findings as the source states them, for the method shown. Binding seen in cells or lysates may run through a third protein. A result given as binding can be weak or reduced; the word gives no strength. Tags and fused reporters may be left off the sequences shown.

B1: GFP-tagged LBR N (aa1-222) (domain or fragment, UniProt Q3U9G9 1-222)
chain: MPSRKFVEGEVVRGRWPGSSLYYEVEILSHDNKSQLYTVKYKDGTELELKESDIKPLKSFKQRKSGSISSSPSRRRGSRSRSRSRSRSRSPGRAPKGSRRSVSASHEGDVKEKKEKEMRREILQVKLTPLVLKPFGNSVSVYNGEPEHMEKNATPYKDKQERIILSTEDRYIVTQYSLRPRREEVKAKEIESEEQNLVTKGPAPLGTFQVTTPQRKDLEFGG
For B1, the binding entry was “binds”.
